From publication PMC7862700 come the findings set out here.

Amino acid sequences for entries named in this document (tags omitted). A change or cut given only in a name is not applied to a line headed by its entry.
UniProt O43186: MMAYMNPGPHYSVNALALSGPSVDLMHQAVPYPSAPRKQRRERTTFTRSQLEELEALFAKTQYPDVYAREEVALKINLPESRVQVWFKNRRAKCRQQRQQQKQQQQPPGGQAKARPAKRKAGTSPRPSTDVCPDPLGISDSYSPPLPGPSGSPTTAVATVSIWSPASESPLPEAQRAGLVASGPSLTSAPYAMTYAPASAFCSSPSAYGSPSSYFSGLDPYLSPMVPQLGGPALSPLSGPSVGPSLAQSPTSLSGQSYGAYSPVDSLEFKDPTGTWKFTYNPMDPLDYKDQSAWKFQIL

This is a selection; strong and weak results do not stand in their true shares. At the low end of the ranking, values are background and their order means little.

The target in the first assay is T1, FEV (UniProt Q99581).
T1 sequence: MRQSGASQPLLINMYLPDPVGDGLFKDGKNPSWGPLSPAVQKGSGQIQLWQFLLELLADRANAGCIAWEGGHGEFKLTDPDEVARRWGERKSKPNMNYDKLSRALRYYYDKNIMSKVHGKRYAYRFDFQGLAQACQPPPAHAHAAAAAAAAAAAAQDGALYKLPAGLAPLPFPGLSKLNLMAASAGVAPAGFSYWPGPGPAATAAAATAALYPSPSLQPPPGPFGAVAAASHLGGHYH
Nature of the assay: DAPPL (digital affinity profiling via proximity ligation, sequencing). The note with it: 10 mM Tris-HCl pH 7.5, 50 mM NaCl, 1 mM DTT, 4% glycerol, room temperature, 30 min; GST-TFs on glutathione beads, 16-mer random dsDNA library, 0.1% …; high values mean tight binding; double strand, one strand shown; scale: fold enrichment (6-mer frequency, TF over GST control).
In turn, GTGGAA gave a binding signal of 0.91.
On the same count and under the same terms, then TCAACT, with 1.36.
Same read-out and setting: the same measure for ACGTCA: 0.989.
The sequence CGACCA yielded a binding signal of 1.3.
In turn, GTCGAC registered a binding signal of 1.02.
Still for that read-out and setting: the same measure for TGAAAG: 0.999; for TGAAGC: 0.935.
For the sequence CCTTAA, the binding signal is 1.33.
Same read-out and setting: the same measure for GCAGAA: 0.944; for TCCGCG: 1.2.
The same measure, in the same setting: the same measure for CCATAG: 0.854; for GCAGAT: 0.899; for GGTGGT: 0.938.
In turn, GAAAGT gave a binding signal of 0.794.
Turning to GGCCTC, the binding signal turned out to be 1.07.
The sequence TGGCGA showed a binding signal of 1.02.
AGGCCC displayed a binding signal of 0.948.
As to ACTCGG, the binding signal came out at 0.974.
The same measure, in the same setting: then GGCTCG, with 0.997; and ACTAGA, with 0.951; and AGAGAT, with 0.879.
In the case of TATGTC, the binding signal was determined as 0.983.
The same measure, in the same setting: the same measure for AGCACG: 0.884.
Sequence GCGCGC registered a binding signal of 0.909.
For the sequence AGAACC, the binding signal turned out to be 0.952.
Still for that read-out and setting: then CGACGG, with 0.937; and GCCGTC, with 0.927.
With CGCAAT, the binding signal came out at 0.951.
Still for that read-out and setting: the same measure for AACACC: 1.15.

A further assay concerns the target CRX (UniProt O43186). Described as above. The note with it: 10 mM Tris-HCl pH 7.5, 50 mM NaCl, 1 mM DTT, 4% glycerol, room temperature, 30 min; GST-TFs on glutathione beads, 16-mer random dsDNA library, 0.1% …; high values mean tight binding; double strand, one strand shown; scale: fold enrichment (6-mer frequency, TF over GST control).
For the sequence GTGGAA, the binding signal worked out at 0.838.
On the same count and under the same terms, the same measure for TCAACT: 1.34.
For TCATAC, the binding signal was 1.02.
ACGTCA displayed a binding signal of 0.736.
On the same count and under the same terms, then CGACCA, with 0.938; and GTCGAC, with 0.715; and GTGGCC, with 0.754.
The same measure, in the same setting: the same measure for TGAAAG: 0.987; for TAGAAA: 1.58; for TGAAGC: 0.978.
Same read-out and setting: the same measure for CCTTAA: 2.17; for GCAGAA: 0.794.
Take CAATGT: the binding signal amounted to 0.827.
Same read-out and setting: the same measure for ACCACG: 0.853.
In turn, TCCGCG gave a binding signal of 0.978.
CCATAG: the binding signal stood at 0.902.
The same measure, in the same setting: the same measure for GCAGAT: 1.21; for ACCTAG: 0.999.
Consider GGTGGT, for which the binding signal came to 0.683.
Still for that read-out and setting: the same measure for GAAAGT: 0.842; for GGCCTC: 0.889.
Regarding TGGCGA, the binding signal was 0.854.
Take AGGCCC: the binding signal was 0.812.
Regarding ACTCGG, the binding signal stood at 0.816.
Same read-out and setting: then GGCTCG, with 0.873; and ACTAGA, with 1.16; and AGAGAT, with 1.38.
For TATGTC, the binding signal was determined as 0.953.
Consider AGCACG, for which the binding signal stood at 0.749.
The same measure, in the same setting: the same measure for GCGCGC: 0.858.
Consider ACGAAA, for which the binding signal stood at 1.09.
Sequence GATTTG displayed a binding signal of 1.78.
Regarding AGAACC, the binding signal amounted to 0.957.
Same read-out and setting: then CGACGG, with 0.765.
On the same count and under the same terms, then TGGACT, with 1.06.
On the same count and under the same terms, the same measure for TTGGCT: 1.33; for GCCGTC: 0.738; for CGCAAT: 0.805.
Sequence ACCTCT returned a binding signal of 1.19.
On the same count and under the same terms, then AACACC, with 0.994.

The next assay addresses T2, ELF5 (UniProt Q9UKW6-2).
T2 sequence: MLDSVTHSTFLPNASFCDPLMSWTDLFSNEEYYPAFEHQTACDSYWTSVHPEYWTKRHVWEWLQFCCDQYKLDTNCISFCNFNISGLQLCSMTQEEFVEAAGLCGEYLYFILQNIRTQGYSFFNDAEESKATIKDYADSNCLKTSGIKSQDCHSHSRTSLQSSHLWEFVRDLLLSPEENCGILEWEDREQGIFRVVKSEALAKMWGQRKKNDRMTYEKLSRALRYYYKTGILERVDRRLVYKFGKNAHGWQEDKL
Described as above. Conditions: 10 mM Tris-HCl pH 7.5, 50 mM NaCl, 1 mM DTT, 4% glycerol, room temperature, 30 min; GST-TFs on glutathione beads, 16-mer random dsDNA library, 0.1% …; high values mean tight binding; double strand, one strand shown; scale: fold enrichment (6-mer frequency, TF over GST control).
GTGGAA displayed a binding signal of 0.96.
The sequence TCAACT returned a binding signal of 1.24.
Same read-out and setting: the same measure for TCATAC: 1.09.
Same read-out and setting: then ACGTCA, with 0.957; and CGACCA, with 1.2; and GTCGAC, with 0.981.
On the same count and under the same terms, the same measure for GTGGCC: 0.912; for TGAAAG: 0.908.
With TAGAAA, the binding signal stood at 0.964.
With TGAAGC, the binding signal was found to be 0.94.
Turning to CCTTAA, the binding signal came to 1.44.
In turn, GCAGAA showed a binding signal of 0.844.
Still for that read-out and setting: then CAATGT, with 0.965; and ACCACG, with 1.02.
On the same count and under the same terms, then TCCGCG, with 1.55; and CCATAG, with 0.932; and GCAGAT, with 0.881.
For ACCTAG, the binding signal was 0.932.
Same read-out and setting: the same measure for GGTGGT: 0.969; for GAAAGT: 0.87.
With GGCCTC, the binding signal came out at 0.983.
Still for that read-out and setting: the same measure for TGGCGA: 0.903; for AGGCCC: 0.876; for ACTCGG: 0.921.
The same measure, in the same setting: then GGCTCG, with 0.966; and ACTAGA, with 0.906; and AGAGAT, with 0.899.
For TATGTC, the binding signal was 1.05.
Turning to AGCACG, the binding signal stood at 0.872.
In turn, GCGCGC showed a binding signal of 0.967.
ACGAAA: the binding signal stood at 1.09.
Same read-out and setting: then GATTTG, with 1.05; and AGAACC, with 0.954.
Consider CGACGG, for which the binding signal stood at 0.981.
TGGACT: the binding signal was 1.22.
Same read-out and setting: the same measure for TTGGCT: 0.985.
On the same count and under the same terms, then GCCGTC, with 0.946; and CGCAAT, with 0.847; and ACCTCT, with 1.34.
The same measure, in the same setting: then AACACC, with 1.09.
